In article PMC6137146, “A small molecule targeting myoferlin exerts promising anti-tumor effects on breast cancer” (Nature Communications, 2018):
These are yes or no findings as the source states them, for the method shown. In cells and extracts the contact can be indirect. Some binding calls cover weakened binding; strength is not graded here.

Protein sequences, listed by entry. Tags and fused reporters are not part of them.
UniProt P51149: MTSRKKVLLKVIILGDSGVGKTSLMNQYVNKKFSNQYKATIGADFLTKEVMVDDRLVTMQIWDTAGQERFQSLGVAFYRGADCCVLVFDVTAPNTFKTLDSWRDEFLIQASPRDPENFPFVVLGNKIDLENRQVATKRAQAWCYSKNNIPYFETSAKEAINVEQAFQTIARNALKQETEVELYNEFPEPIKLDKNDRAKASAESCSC
UniProt Q9NZM1: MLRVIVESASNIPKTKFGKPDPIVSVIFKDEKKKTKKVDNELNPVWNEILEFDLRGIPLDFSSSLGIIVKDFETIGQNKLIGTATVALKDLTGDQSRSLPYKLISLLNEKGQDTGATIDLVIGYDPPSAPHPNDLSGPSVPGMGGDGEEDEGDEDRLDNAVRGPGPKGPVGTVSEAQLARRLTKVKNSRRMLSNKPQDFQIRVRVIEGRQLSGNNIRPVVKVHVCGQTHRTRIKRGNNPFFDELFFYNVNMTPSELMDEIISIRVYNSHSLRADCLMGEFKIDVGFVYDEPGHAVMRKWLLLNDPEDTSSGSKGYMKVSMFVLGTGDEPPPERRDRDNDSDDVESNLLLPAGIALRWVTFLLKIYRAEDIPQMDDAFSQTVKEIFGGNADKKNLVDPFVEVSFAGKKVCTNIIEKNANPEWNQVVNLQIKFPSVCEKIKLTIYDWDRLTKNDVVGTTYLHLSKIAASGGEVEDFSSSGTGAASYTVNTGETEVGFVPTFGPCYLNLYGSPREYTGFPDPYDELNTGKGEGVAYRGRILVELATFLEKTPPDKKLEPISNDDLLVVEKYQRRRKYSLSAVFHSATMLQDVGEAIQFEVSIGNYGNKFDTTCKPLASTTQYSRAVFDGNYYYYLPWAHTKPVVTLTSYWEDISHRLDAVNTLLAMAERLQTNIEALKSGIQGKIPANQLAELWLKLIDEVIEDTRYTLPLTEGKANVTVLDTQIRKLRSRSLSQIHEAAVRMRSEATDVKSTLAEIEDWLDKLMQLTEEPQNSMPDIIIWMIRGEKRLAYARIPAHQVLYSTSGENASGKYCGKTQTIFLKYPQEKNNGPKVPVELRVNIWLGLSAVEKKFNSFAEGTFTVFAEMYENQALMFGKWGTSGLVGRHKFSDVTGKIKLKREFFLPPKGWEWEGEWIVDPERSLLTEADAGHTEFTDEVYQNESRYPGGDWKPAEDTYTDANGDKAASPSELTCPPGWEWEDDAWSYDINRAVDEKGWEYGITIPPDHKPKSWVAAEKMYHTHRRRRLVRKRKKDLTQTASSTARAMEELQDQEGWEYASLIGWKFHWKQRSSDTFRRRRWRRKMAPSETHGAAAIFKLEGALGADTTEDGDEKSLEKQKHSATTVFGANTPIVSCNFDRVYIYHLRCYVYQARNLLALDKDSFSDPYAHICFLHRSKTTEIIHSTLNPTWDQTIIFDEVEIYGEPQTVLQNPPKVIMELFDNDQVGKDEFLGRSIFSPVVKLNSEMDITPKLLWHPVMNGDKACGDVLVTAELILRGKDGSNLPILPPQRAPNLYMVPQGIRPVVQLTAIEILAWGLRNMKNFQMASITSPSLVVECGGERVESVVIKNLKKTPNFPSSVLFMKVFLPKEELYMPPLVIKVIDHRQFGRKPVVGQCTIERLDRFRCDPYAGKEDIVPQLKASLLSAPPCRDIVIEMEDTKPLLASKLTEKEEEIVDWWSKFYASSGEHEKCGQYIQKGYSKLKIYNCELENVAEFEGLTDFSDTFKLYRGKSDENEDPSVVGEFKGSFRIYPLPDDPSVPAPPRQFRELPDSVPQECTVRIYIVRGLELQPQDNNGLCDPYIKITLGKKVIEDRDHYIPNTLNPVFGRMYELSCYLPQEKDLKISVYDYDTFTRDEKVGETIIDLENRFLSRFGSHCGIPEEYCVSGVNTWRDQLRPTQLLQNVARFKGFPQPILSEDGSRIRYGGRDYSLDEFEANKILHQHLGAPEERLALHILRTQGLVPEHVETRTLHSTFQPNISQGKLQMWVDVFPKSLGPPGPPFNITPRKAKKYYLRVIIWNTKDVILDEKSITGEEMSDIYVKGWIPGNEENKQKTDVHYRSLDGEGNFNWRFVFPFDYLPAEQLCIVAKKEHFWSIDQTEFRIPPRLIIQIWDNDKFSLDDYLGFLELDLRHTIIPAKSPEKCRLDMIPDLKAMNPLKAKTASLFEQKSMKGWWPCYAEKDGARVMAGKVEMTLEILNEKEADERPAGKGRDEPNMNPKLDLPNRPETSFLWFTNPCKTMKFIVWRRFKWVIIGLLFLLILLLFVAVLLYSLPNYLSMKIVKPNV

Columns and labels:
Flag-Rab7 = Flag-Rab7 (UniProt P51149); experiment: co-IP; HA-MYOF and Flag-Rab7 co-transfected in 293T cells; immunoprecipitation with anti-Flag M2 affinity gel; cells untreated or exposed to WJ460 (50, 100, 200 nM)
[1] = biological target: HA-MYOF (hemagglutinin-tagged myoferlin) (human) (UniProt Q9NZM1); experiment: co-IP; HA-MYOF and Flag-Rab7 co-transfected in 293T cells; reciprocal immunoprecipitation with anti-HA affinity gel; cells untreated or exposed to WJ460 (50, 100, 200 nM)
[2] = biological target: Rab7, endogenous in MDA-MB-231 cells (human (endogenous in MDA-MB-231)) (UniProt P51149); experiment: co-IP; endogenous proteins of MDA-MB-231 cells; immunoprecipitation with anti-Rab7 antibody; cells untreated or treated with WJ460 (50, 100, 200 nM)

HA-MYOF (hemagglutinin-tagged myoferlin) (from UniProt Q9NZM1 1-2061)
binding (Flag-Rab7): binds

Flag-Rab7 (from UniProt P51149 1-207)
binding [1]: binds

myoferlin (MYOF), endogenous in MDA-MB-231 cells (from UniProt Q9NZM1 1-2061)
binding [2]: binds
